Some entries share one result that the patent states for a list of compounds. At least one structure is not confirmed: it was looked up by name or label, or the drawing left a doubt.
Key:
[1] = tested on: Streptococcus pneumoniae ATCC49619; assay: MIC, Agar Dilution Test or Microdilution Test (CLSI M7-A7); format: cell-based; conditions: against Streptococcus pneumoniae ATCC49619
[2] = tested on: Staphylococcus aureus ATCC49951; assay: as above; format: cell-based; conditions: against Staphylococcus aureus ATCC49951

14-O-[(4-Amino-2-oxo-cyclohexylsulfanyl)-acetyl]-mutilin [Example 34]
MICs [1]: ≤ 2 µg/mL | MICs [2]: ≤ 2 µg/mL

14-O-{[(1R, 2R)-4-Aminomethyl-2-hydroxy-cyclohexylsulfanyl]-acetyl}-mutilin diasteromers+(1S, 2S)diastereomers [Example 29]
MICs [1]: ≤ 2 µg/mL | MICs [2]: ≤ 2 µg/mL

14-O-{[(1R, 2R)-5-(3-Amino-propyl)-2-hydroxy-cyclohexylsulfanyl]-acetyl}-mutilin+(1S, 2S)diastereomer and 14-O-{[(1R, 2R)-4-(3-Amino-propyl)-2-hydroxy-cyclohexylsulfanyl]-acetyl}-mutilin+(1S, 2S)diastereomer [Example 33]
MICs [1]: ≤ 2 µg/mL | MICs [2]: ≤ 2 µg/mL

14-O-{[(1R, 2R, 4S)-4-Diethylamino-2-hydroxy-cyclohexylsulfanyl]-acetyl}-mutilin+(1S, 2S, 4R)diastereomer [Example 9]
MICs [1]: ≤ 2 µg/mL | MICs [2]: ≤ 2 µg/mL

14-O-{[(1R, 2R, 5R)-5-Amino-2-hydroxy-cyclohexylsulfanyl]-acetyl}-mutilin+(1S, 2S, 5S)diastereomer [Example 4]
MICs [1]: ≤ 2 µg/mL | MICs [2]: ≤ 2 µg/mL

14-O-{[(1R, 2R, 5S*)-4-Cyclopropylamino-2-hydroxy-cyclohexylsulfanyl]-acetyl}-mutilin hydrochloride+(1S, 2S, 5R*)diastereomer hydrochloride [Example 22]
MICs [1]: ≤ 2 µg/mL | MICs [2]: ≤ 2 µg/mL

14-O-{[(6R, 8R)-8-Amino-1,4-dioxa-spiro[4.5]dec-6-ylsulfanyl]-acetyl}-mutilin succinic acid salt+(6S, 8S)diastereomer succinic acid salt [Example 36]
MICs [1]: ≤ 2 µg/mL | MICs [2]: ≤ 2 µg/mL

C=CC1(C)CC(OC(=O)CSC2CC(N)CCC2O)C2(C)C(C)CCC3(CCC(=O)C32)C(C)C1O.Cl (mixture of isomers) [Example 2, 14-O-{[(1R, 2R, 5S)-5-Amino-2-hydroxy-cyclohexylsulfanyl]-acetyl}-mutilin hydrochloride+(1S, 2S, 5R)diastereomer hydrochloride]
MICs [1]: ≤ 2 µg/mL | MICs [2]: ≤ 2 µg/mL

C=CC1(C)CC(OC(=O)CSC2CCCC(N)C2O)C2(C)C(C)CCC3(CCC(=O)C32)C(C)C1O.Cl (mixture of isomers) [Example 5, 14-O-{[(1R, 2R, 3R)-3-Amino-2-hydroxy-cyclohexylsulfanyl]-acetyl}-mutilin hydrochloride+(1S, 2S, 3S)diastereomer hydrochloride]
MICs [1]: ≤ 2 µg/mL | MICs [2]: ≤ 2 µg/mL

C=CC1(C)CC(OC(=O)CSC2CC(NCC)CCC2O)C2(C)C(C)CCC3(CCC(=O)C32)C(C)C1O.Cl (mixture of isomers) [Example 7, 14-O-{[(1R, 2R, 5S)-5-Ethylamino-2-hydroxy-cyclohexylsulfanyl]-acetyl}-mutilin hydrochloride+(1S, 2S, 5R)diastereomer hydrochloride]
MICs [1]: ≤ 2 µg/mL | MICs [2]: ≤ 2 µg/mL

C=CC1(C)CC(OC(=O)CSC2CC(N(CC)CC)CCC2O)C2(C)C(C)CCC3(CCC(=O)C32)C(C)C1O.Cl (mixture of isomers) [Example 8, 14-O-{[(1R, 2R, 5S)-5-Diethylamino-2-hydroxy-cyclohexylsulfanyl]-acetyl}-mutilin hydrochloride+(1S, 2S, 5R)diastereomer hydrochloride]
MICs [1]: ≤ 2 µg/mL | MICs [2]: ≤ 2 µg/mL

C=CC1(C)CC(OC(=O)CSC2CC(N(CC)CC)CCC2O)C2(C)C(C)CCC3(CCC(=O)C32)C(C)C1O (mixture of isomers) [Example 10, 14-O-{[(1R, 2R, 5R)-5-Diethylamino-2-hydroxy-cyclohexylsulfanyl]-acetyl}-mutilin+(1S, 2S, 5S)diastereomer]
MICs [1]: ≤ 2 µg/mL | MICs [2]: ≤ 2 µg/mL

C=CC1(C)CC(OC(=O)CSC2CCCC(NCC)C2O)C2(C)C(C)CCC3(CCC(=O)C32)C(C)C1O (mixture of isomers) [Example 11, 14-O-{[(1R, 2R, 3R)-3-Ethylamino-2-hydroxy-cyclohexylsulfanyl]-acetyl}-mutilin+(1S, 2S, 3S)diastereomer]
MICs [1]: ≤ 2 µg/mL | MICs [2]: ≤ 2 µg/mL

C=CC1(C)CC(OC(=O)CSC2CCCC(N(CC)CC)C2O)C2(C)C(C)CCC3(CCC(=O)C32)C(C)C1O (mixture of isomers) [Example 12, 14-O-{[(1R, 2R, 3R)-3-Diethylamino-2-hydroxy-cyclohexylsulfanyl]-acetyl}-mutilin+(1S, 2S, 3S)diastereomer]
MICs [1]: ≤ 2 µg/mL | MICs [2]: ≤ 2 µg/mL

C=CC1(C)CC(OC(=O)CSC2CCC(N(O)C=O)CC2O)C2(C)C(C)CCC3(CCC(=O)C32)C(C)C1O (mixture of isomers) [Example 13, 14-O-{[(1R, 2R, 4S)-4-(Formyl-hydroxy-amino)-2-hydroxy-cyclohexylsulfanyl]-acetyl}-mutilin+(1S, 2S, 4R)diastereomer]
MICs [1]: ≤ 2 µg/mL | MICs [2]: ≤ 2 µg/mL

C=CC1(C)CC(OC(=O)CSC2CC(N(O)C=O)CCC2O)C2(C)C(C)CCC3(CCC(=O)C32)C(C)C1O (mixture of isomers) [Example 14, 14-O-{[(1R, 2R, 5S)-5-(Formyl-hydroxy-amino)-2-hydroxy-cyclohexylsulfanyl]-acetyl}-mutilin+(1S, 2S, 5R)diastereomer]
MICs [1]: ≤ 2 µg/mL | MICs [2]: ≤ 2 µg/mL

C=CC1(C)CC(OC(=O)CSC2CCCC(N(O)C=O)C2O)C2(C)C(C)CCC3(CCC(=O)C32)C(C)C1O (mixture of isomers) [Example 15, 14-O-{[(1R, 2R, 3R/S)-3-(Formyl-hydroxy-amino)-2-hydroxy-cyclohexylsulfanyl]-acetyl}-mutilin+(1S, 2S, 3R/S)diastereomer]
MICs [1]: ≤ 2 µg/mL | MICs [2]: ≤ 2 µg/mL

C=CC1(C)CC(OC(=O)CSC2CC(NC)CCC2O)C2(C)C(C)CCC3(CCC(=O)C32)C(C)C1O.Cl (mixture of isomers) [Example 16, 14-O-{[(1R, 2R, 5S)-2-Hydroxy-5-methylamino-cyclohexylsulfanyl]-acetyl}-mutilin hydrochloride+(1S, 2S, 5R)diastereomer hydrochloride]
MICs [1]: ≤ 2 µg/mL | MICs [2]: ≤ 2 µg/mL

C=CCNC1CCC(O)C(SCC(=O)OC2CC(C)(C=C)C(O)C(C)C34CCC(=O)C3C2(C)C(C)CC4)C1.Cl (mixture of isomers) [Example 17, 14-O-{[(1R, 2R, 5S)-5-Allylamino-2-hydroxy-cyclohexylsulfanyl]-acetyl}-mutilin hydrochloride+(1S, 2S, 5R)diastereomer hydrochloride]
MICs [1]: ≤ 2 µg/mL | MICs [2]: ≤ 2 µg/mL

C=CC1(C)CC(OC(=O)CSC2CC(NCCOC)CCC2O)C2(C)C(C)CCC3(CCC(=O)C32)C(C)C1O.Cl (mixture of isomers) [Example 18, 14-O-{[(1R, 2R, 5S)-2-Hydroxy-5-(2-methoxy-ethylamino)-cyclohexylsulfanyl]-acetyl}-mutilin hydrochloride+(1S, 2S, 5R)diastereomer hydrochloride]
MICs [1]: ≤ 2 µg/mL | MICs [2]: ≤ 2 µg/mL

C=CC1(C)CC(OC(=O)CSC2CCC(NCCO)CC2O)C2(C)C(C)CCC3(CCC(=O)C32)C(C)C1O.Cl (mixture of isomers) [Example 19, 14-O-{[(1R, 2R, 4R*)-2-Hydroxy-4-(2-hydroxy-ethylamino)-cyclohexylsulfanyl]-acetyl}-mutilin hydrochloride+(1S, 2S, 4S*)diastereomer hydrochloride]
MICs [1]: ≤ 2 µg/mL | MICs [2]: ≤ 2 µg/mL

C=CC1(C)CC(OC(=O)CSC2CCC(NC3CCCCC3)CC2O)C2(C)C(C)CCC3(CCC(=O)C32)C(C)C1O.Cl (mixture of isomers) [Example 20, 14-O-{[(1R, 2R, 4R*)-4-Cyclohexylamino-2-hydroxy-cyclohexylsulfanyl]-acetyl}-mutilin hydrochloride+(1S, 2S, 4S*)diastereomer hydrochloride]
MICs [1]: ≤ 2 µg/mL | MICs [2]: ≤ 2 µg/mL

C=CC1(C)CC(OC(=O)CSC2CCC(NC3CC3)CC2O)C2(C)C(C)CCC3(CCC(=O)C32)C(C)C1O (mixture of isomers) [Example 21, 14-O-{[(1R, 2R, 4R*)-4-Cyclopropylamino-2-hydroxy-cyclohexylsulfanyl]-acetyl}-mutilin+(1S, 2S, 4S*)diastereomer]
MICs [1]: ≤ 2 µg/mL | MICs [2]: ≤ 2 µg/mL

C=CC1(C)CC(OC(=O)CSC2CCC(NC3CC3)CC2O)C2(C)C(C)CCC3(CCC(=O)C32)C(C)C1O.Cl (mixture of isomers) [Example 23, 14-O-{[(1R, 2R, 4S*)-4-Cyclopropylamino-2-hydroxy-cyclohexylsulfanyl]-acetyl}-mutilin hydrochloride+(1S, 2S, 4R*)diastereomer hydrochloride]
MICs [1]: ≤ 2 µg/mL | MICs [2]: ≤ 2 µg/mL

C=CC1(C)CC(OC(=O)CSC2CC(N3CCOCC3)CCC2O)C2(C)C(C)CCC3(CCC(=O)C32)C(C)C1O.Cl (mixture of isomers) [Example 24, 14-O-{[(1R, 2R, 5R*)-2-Hydroxy-5-morpholin-4-yl-cyclohexylsulfanyl]-acetyl}-mutilin hydrochloride+(1S, 2S, 5S*)diastereomer hydrochloride]
MICs [1]: ≤ 2 µg/mL | MICs [2]: ≤ 2 µg/mL

CCC1(C)CC(OC(=O)CSC2CC(N)CCC2O)C2(C)C(C)CCC3(CCC(=O)C32)C(C)C1O.Cl (mixture of isomers) [Example 26, 14-O-{[(1R, 2R, 5S)-5-Amino-2-hydroxy-cyclohexylsulfanyl]-acetyl}-19,20-dihydro-mutilin hydrochloride+(1S, 2S, 5R)diastereomer hydrochloride]
MICs [1]: ≤ 2 µg/mL | MICs [2]: ≤ 2 µg/mL

CCNC1CCC(O)C(SCC(=O)OC2CC(C)(CC)C(O)C(C)C34CCC(=O)C3C2(C)C(C)CC4)C1.Cl (mixture of isomers) [Example 27, 14-O-{[(1R, 2R, 5S)-5-Ethylamino-2-hydroxy-cyclohexylsulfanyl]-acetyl}-19,20-dihydro-mutilin hydrochloride+(1S, 2S, 5R)diastereomer hydrochloride]
MICs [1]: ≤ 2 µg/mL | MICs [2]: ≤ 2 µg/mL

Reference: patent publication US8153689B2, “Pleuromutilin derivatives for the treatment of diseases mediated by microbes” (Nabriva Therapeutics AG, priority 2007, dated 2012)
